The results in this text go back to EP1666075A1.

No constants are given. Whether binding was seen depends on the method and setting. Binding calls can cover weak binding; strength is not graded here.

In this experiment the target is Cathepsin G (Homo sapiens (Human)). Description: ELISA: plate-coated Cathepsin G, ACT samples added, detected with rabbit anti human ACT antibody and goat anti rabbit IgG-HRP, OPD, A490. On the technique in general: ELISA stands for enzyme-linked immunosorbent assay.

B1: alpha-1-antichymotrypsin (protein, UniProt P01011 24-423, looked up)
chain: HPNSPLDEENLTQENQDRGTHVDLGLASANVDFAFSLYKQLVLKAPDKNVIFSPLSISTALAFLSLGAHNTTLTEILKGLKFNLTETSEAEIHQSFQHLLRTLNQSSDELQLSMGNAMFVKEQLSLLDRFTEDAKRLYGSEAFATDFQDSAAAKKLINDYVKNGTRGKITDLIKDLDSQTMMVLVNYIFFKAKWEMPFDPQDTHQSRFYLSKKKWVMVPMMSLHHLTIPYFRDEELSCTVVELKYTGNASALFILPDQDKMEEVEAMLLPETLKRWRDSLEFREIGELYLPKFSISRDYNLNDILLQLGIEEAFTSKADLSGITGARNLAVSQVVHKAVLDVFEEGTEASAATAVKITLLSALVETRTIVRFNRPFLMIIVPTDTQNIFFMSKVTNPKQA
Regarding B1, the binding result was “binds”.
